Percent effect of library compounds

Chains of the proteins cited; added tags and fusions are not shown. Residues count along the entry.
UniProt Q4DA54, 1-478: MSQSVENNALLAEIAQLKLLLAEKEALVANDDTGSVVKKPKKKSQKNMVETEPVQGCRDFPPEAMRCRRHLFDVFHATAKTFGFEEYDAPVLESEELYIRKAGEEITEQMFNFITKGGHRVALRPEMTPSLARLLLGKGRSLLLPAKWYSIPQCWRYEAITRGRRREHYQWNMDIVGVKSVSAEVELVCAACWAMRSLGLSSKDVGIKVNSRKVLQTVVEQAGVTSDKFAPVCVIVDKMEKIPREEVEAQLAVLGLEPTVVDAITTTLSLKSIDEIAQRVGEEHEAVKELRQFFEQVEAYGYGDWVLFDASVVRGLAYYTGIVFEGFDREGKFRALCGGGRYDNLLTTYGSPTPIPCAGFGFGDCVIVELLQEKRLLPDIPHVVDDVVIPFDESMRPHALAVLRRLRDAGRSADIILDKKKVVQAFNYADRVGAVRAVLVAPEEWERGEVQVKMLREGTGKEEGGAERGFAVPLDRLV

Data taken from ChEMBL document CHEMBL3988442, “University of Dundee, Small-Polar-MMV Screening Library” (2021).

Toxoplasma: 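Assay of Toxoplasma gondii numbers, read through their beta-galactosidase reporter with a colour substrate. Concentration: 10 µM. The record gives no direction; the compounds picked for IC50 retests had high values, so higher reads as fewer parasites. Of about 67,000 compounds tested this way, about 260 (0.38%) reached 50% or more in at least one test.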
TcHisRS: 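Histidine-tRNA ligase, Trypanosoma cruzi CL Brener (UniProt Q4DA54). Enzyme assay of histidyl-tRNA synthetase; the read-out is not stated. Compounds at 30 µM. Higher reads as stronger inhibition (inferred: compounds with an IC50 in retests scored well above the rest). Size under these conditions: about 69,000 compounds, about 31 of them at 50% or above in at least one test.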

Results are given as percent effect.
How 0% and 100% were set is not recorded. Most values in the screen are low, and negative values occur.
Compounds were drawn at random from those tested, without regard to their results.
A dash means the value is not listed here; it may have been measured.

structure | Toxoplasma | TcHisRS
CN(C)C(=O)C1CCC2(CCN(Cc3ccc4ccccc4n3)CC2)O1 (centres undefined) | -12.61 | 11.65
NS(=O)(=O)CCN1CCOC(c2ccc(Cl)cc2)C1 (centres undefined) | -0.6944 | 2.941
CS(=O)(=O)N1CCOCC12CCN(Cc1ccc(F)cc1)CC2.O=C(O)C(F)(F)F | 12.23 | -
COCC(=O)NCc1cc(=O)n2c(n1)CN(CC1CC1)CCC2.O=C(O)C(F)(F)F | -1.288 | -
O=C(NCCCC(=O)N1Cc2ccccc2C1)NCc1nccs1 | 1.181 | 5.419
CNC(=O)[C@@H]1[C@@H](c2ccccc2)CN2CCN(Cc3cc(C)no3)C[C@H]12 | - | 2.247
CCS(=O)(=O)N1CCCC(c2nccn2Cc2cccnc2)C1 (centres undefined) | 0.6509 | 1.63
O=C(COc1ccc(Cl)cc1Cl)N1CCCSCC1CN1CCOCC1 (centres undefined) | 13.9 | 4.124
Cc1cc(C(=O)N2C[C@H]3CC[C@@H]2CN(C)C3)ccc1Cl | - | 7.059
O=C(NCCOCCO)c1cccnc1Oc1ccc(Cl)cc1 | 14.65 | 5.682
CC(C)Cc1noc(CN2CCOCC2)n1 | -7.763 | 1.901
CCOCc1nn(CC2CC2)c2c1CN(Cc1ccco1)CC2 | - | 2.913
Cc1csc(C(C)(C)NCc2ncc(-c3ccccc3)o2)n1 | -3.496 | 0
COc1ccc(CN2CCn3cc(Cn4cccn4)nc3C2)cc1.O=C(O)C(F)(F)F | -11.42 | -
Cl.O=C1NCCCCC1NCc1csc(-c2ccccn2)n1 (centres undefined) | -1.027 | -
O=C(Nc1ccccc1F)N(CCO)CCOCC(F)(F)F | 6.898 | 6.897
CCOc1ccc(CC(=O)N2CCN(c3nccn3CC)CC2)cc1 | - | 10
Cc1cnccc1N1CCCN(C(=O)CCn2ccnc2C)CC1 | 19.75 | 7.229
CCCN1CCCC2(CCN(S(=O)(=O)N3CCC(OC)CC3)C2)C1=O (centres undefined) | -21.03 | 2.02
CC(C)C1CN(Cc2cnc(N(C)C)nc2)CCCN1CC1CC1 (centres undefined) | 8.329 | 2.597
CCCS(=O)(=O)N1CCC2(CCCN(Cc3cccc(F)c3F)C2=O)C1 (centres undefined) | 2.602 | 3.922
CCc1nn(C)c(Cl)c1CN1CCC2(C1)CN(C)C(=O)O2 (centres undefined) | -7.446 | 2.488
O=C1CC(c2cccc(Cl)c2)c2snc(C(=O)O)c2N1 (centres undefined) | 1.953 | 0
O=C(c1ccno1)N1CCO[C@]2(CCC[C@@H]2COCc2ccncc2)C1 | 15.27 | 3.922
O=C(O)C(F)(F)F.O=C(c1cccs1)N1CCOCC2(C1)CN(c1cccnc1)C(=O)CO2 (centres undefined) | 3.299 | -
CC(C)c1nn(C)c(N(C)C)c1CNCc1ccc(N(C)C)nc1 | 6.8 | 10.65
[H][C@]12CC[C@]([H])(CN(C(=O)CCc3cnn(C)c3)C1)N(Cc1ccccn1)C2 | 10.78 | -
CCC(=O)N(C)C1CCN(Cc2ncc(C)c(OC)c2C)CC1 | 0.7411 | -1.527
Cc1cnn(CCNCc2nc(-c3ccccn3)no2)c1 | -5.265 | 8.772
CC(C)NC(=O)CN(C)C1CCN(c2ccc(C#N)cn2)CC1 | -0.6699 | 0.6494
O=C(c1ncoc1-c1ccco1)N1CCCN(c2nccs2)CC1 | 5.762 | 0.8403
CC(CO)(NC(=O)NCc1ccc(Br)s1)C1CC1 (centres undefined) | -6.443 | 5.699
O=C(O)C(F)(F)F.O=C1CCC2(CCCN(Cc3ccccc3F)C2)N1CC1CC1 (centres undefined) | 2.452 | -
O=C(NCCNC(=O)C1CCCCC1)NCCn1cccc1 | -16.29 | 6.358
Cn1cc(C(=O)NCc2cn3c(n2)CN(Cc2ccccn2)CC3)cn1 | - | 5.882
Cc1cc(C2CCC2)nc(NCC(C)(C)N2CCCC2)n1 | -1.348 | 7.328
CCN1CC(COc2ccccc2)Oc2ncccc2S1(=O)=O (centres undefined) | 22.64 | 4.624
O=C(Nc1ccc(-c2nnc[nH]2)cc1)C1CCN1Cc1ccccc1 (centres undefined) | 3.977 | 3.333
Cn1cc(NC(=O)c2ccccn2)cc(Cl)c1=O | -0.5036 | 8.427
Cc1ccc(C(=O)N2CCc3ccc(=O)n(CCN(C)C)c3CC2)o1.O=C(O)C(F)(F)F | -0.6684 | -
Cc1ccc(N2CC[C@H]3O[C@H](C(=O)N4CCCCO4)CC[C@H]32)nn1 | - | -1.111
CC1(C)COCCN1C(=O)CCc1nc(-c2ccccn2)no1 | 0.8039 | 6.897
Cn1ccc(C(=O)N2CCN(c3cc(C#N)ccn3)CC2)cc1=O | 1.206 | 0.7519
CCS(=O)(=O)N1CCc2ccc(NC(=O)Nc3cccc(C)c3)cc21 | -2.528 | -2.513
CN(C)c1cncc(C2CCCN2S(=O)(=O)c2cn(C)cn2)n1 (centres undefined) | -8.571 | 0.7605
Cc1cc(CNC(=O)CN2CCCC(Cn3cncn3)C2)ccc1F (centres undefined) | 2.696 | 3.955
Cc1cc(NC(=O)CN2CCc3cncnc3C2)on1 | -48.53 | 4.035
CN(Cc1ccc(F)cc1)S(=O)(=O)N1CCOCC1 | -2.581 | -2.5
O=C(NC1CC1)C1CNCCN1C(=O)COc1ccc2c(c1)OCO2 (centres undefined) | 14.55 | 1.622
CCc1nc(CN(C)C2CCN(Cc3nc(C4CC4)no3)C2)no1 (centres undefined) | -3.955 | 1.754
Cn1cc(-c2ccnc(NCC3CC3)n2)cn1 | 26.65 | -1.093
O=C(c1cc[nH]c(=O)c1)N1CCn2c(nnc2-c2ccccc2)C1 | -2.204 | 7.792
Cc1ccn2ncc(C(=O)N3CCCC(n4ccnc4C)C3)c2n1 (centres undefined) | 18.29 | 3.779
CC(O)CN1CCC(CNCc2ccc(OC(F)(F)F)cc2)CC1 (centres undefined) | 1.424 | 4.706
Cc1ccc(N2CCC3(CCN(Cc4nccs4)CC3)CC2)nn1 | -8.707 | 1.149
COC(=O)c1ccc(Cn2cccc(C(F)(F)F)c2=O)c(OC)c1 | -40.36 | 1.818
CCOc1c(F)cccc1C(=O)N(C)CCn1cccn1 | -0.5302 | 1.554
CN(C)CCOCC1CN(Cc2ccsc2)Cc2nnn(C)c21.O=C(O)C(F)(F)F.O=C(O)C(F)(F)F (centres undefined) | 10.47 | -
O=C(CCc1cscn1)NS(=O)(=O)c1ccc2c(c1)CCC2 | 15.41 | 0.813
CC(c1ccccc1F)N1CCN(C(=O)Cc2ccncc2)CC1 (centres undefined) | -8.808 | 2.89
O=C(NCc1nccs1)N1CCOC(c2ccccc2Cl)C1 (centres undefined) | -1.262 | 1.657
Cn1c(C(N)=O)cc2c1CN(C(=O)C1CCCN(C3CCCC3)C1)CC2 (centres undefined) | -4.763 | 1.149
Cc1cccc(CC(=O)Nc2cccnc2N2CCC(CO)CC2)c1 | 8.333 | 10.99
O=C(O)Cn1ccc(=O)c2cc(F)ccc21 | -10.05 | 4.969
Cc1ccccc1CN1CCOC(c2nccc(CN(C)C)n2)C1 (centres undefined) | 7.387 | 0